Data from paper PMC7847690.
Results are given in words; binding and its absence hold for the method and conditions named. In cells and extracts the contact can be indirect.

Chains of the proteins cited; added tags and fusions are not shown.
UniProt Q04206: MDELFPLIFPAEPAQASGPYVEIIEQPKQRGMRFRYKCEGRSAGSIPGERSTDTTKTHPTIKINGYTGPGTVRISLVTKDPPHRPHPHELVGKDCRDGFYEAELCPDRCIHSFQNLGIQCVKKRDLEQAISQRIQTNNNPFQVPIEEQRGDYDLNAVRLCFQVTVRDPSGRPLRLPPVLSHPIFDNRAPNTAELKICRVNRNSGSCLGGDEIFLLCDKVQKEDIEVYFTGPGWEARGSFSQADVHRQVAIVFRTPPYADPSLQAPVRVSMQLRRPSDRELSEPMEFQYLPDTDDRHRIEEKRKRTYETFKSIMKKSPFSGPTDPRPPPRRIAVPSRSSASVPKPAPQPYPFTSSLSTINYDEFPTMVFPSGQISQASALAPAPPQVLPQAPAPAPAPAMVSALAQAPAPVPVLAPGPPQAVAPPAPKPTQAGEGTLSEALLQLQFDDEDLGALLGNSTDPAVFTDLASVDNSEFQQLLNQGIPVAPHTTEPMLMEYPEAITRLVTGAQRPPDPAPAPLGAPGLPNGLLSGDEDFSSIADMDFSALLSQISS
UniProt P13640: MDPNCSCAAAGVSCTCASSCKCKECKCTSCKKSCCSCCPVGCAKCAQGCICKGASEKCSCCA

Target: NF-κB p65 subunit (UniProt Q04206)
Assay: co-IP; not told in the text shown (Figure S5E; no co-IP method for this experiment in the methods)

## Metallothionein-1G (from UniProt P13640 1-62)
  binding: no binding
